Measured values published in PubChem BioAssay AID504467 (National Center for Advancing Translational Sciences (NCATS), 2011).
In all, about 330,000 compounds went through this assay and about 7,700 (2.3%) were called active. Inconclusive means that the source gave no clear call. Such entries were picked first, then a sample of the others. The call rests on the fitted dose curve; in most records, active means well fitted inhibition curve with a large enough effect; inconclusive means small, poorly fitted or top-dose-only effect, or effect the other way; inactive means flat fitted curve, though single readings scatter. Where the call is inconclusive, the potency comes from a doubtful curve fit.

Assay: qHTS screen for small molecules that inhibit ELG1-dependent DNA repair in human embryonic kidney (HEK293T) cells expressing luciferase-tagged ELG1; further: nearly all actives have a fitted effect of over 55% in size
Details: HEK293T ELG1-luciferase reporter, luminescence, 16 h, DNA damage induced by 5-fluorouridine; series mostly up to 46.1 µM
Method in brief: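 Reporter activity after DNA damage by 5-fluorouridine is monitored. Compound-treated cells incubate 16 hr at 37 °C, then ONE-Glo is added for 30 min before luminescence reading.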
Potency means the concentration at half of the fitted maximal effect.

**Q.** For `COc1ccc(N=Nc2nc(-c3ccccc3)c(-c3ccccc3)[nH]2)cc1`, which Potency is on record?
**A.** The Potency was inconclusive: 29.1 µM [inhibitor, single point].

**Q.** Which Potency does the source give for `COc1ccc(C2=NOC(C(=O)NCC(C)C)C2)cc1` (stereo unspecified) here?
**A.** Its Potency is inconclusive: 11.2 µM [activator, partial curve, poor fit].

**Q.** For `O/C=c1\ccc2cccc3nc(C(F)(F)F)nc1c23`, which Potency is on record?
**A.** Its Potency is “inactive”.

**Q.** For `CCOC(=O)c1cnc2c(-c3ccc(Cl)cc3)cnn2c1C`, which Potency is on record?
**A.** Its Potency is inconclusive: 4.61 µM [activator, partial curve].

**Q.** Which Potency does the source give for `Cn1c(CCN2CCN(c3ccccn3)CC2)nc2cc(NS(=O)(=O)c3ccccc3)ccc21` here?
**A.** The Potency was active: 9.2 µM.

**Q.** Which Potency does the source give for `CC(=O)N1c2c(cc(Br)cc2S(=O)(=O)N2CCN(c3ccccc3F)CC2)CC1C` (stereo unspecified) here?
**A.** Its Potency is inconclusive: 32.6 µM [inhibitor, partial curve, poor fit].

**Q.** With `CCCC[C@@H]1CNC(=S)N1CCc1cccc(F)c1` as the molecule, how does the Potency read?
**A.** The Potency was “inactive”.

**Q.** Which Potency does the source give for `CCn1c(SCC(=O)Nc2cccc(NC(C)=O)c2)nc2c([nH]c3ccccc32)c1=O` here?
**A.** The Potency was inconclusive: 2.31 µM [inhibitor, full curve].

**Q.** For `Cc1cc(=O)oc2cc(OCC(=O)OCC(=O)Nc3ccccc3C(C)C)ccc12`, which Potency is on record?
**A.** The Potency was inconclusive: 23.1 µM [activator, single point].

**Q.** With `COc1ccccc1C(=O)NNC(=O)c1cccc(Cl)c1` as the molecule, how does the Potency read?
**A.** Its Potency is inconclusive: 23.1 µM [activator, partial curve].

**Q.** With `Cc1cccc(NCC(=O)N/N=C\c2ccc[nH]2)c1` as the molecule, how does the Potency read?
**A.** Its Potency is “inactive”.

**Q.** For `O=c1[nH]c(CSc2ncc(-c3ccc(F)cc3)n2Cc2ccco2)nc2ccccc12`, which Potency is on record?
**A.** Its Potency is inconclusive: 29.1 µM [inhibitor, single point].

**Q.** Which Potency does the source give for `COc1ccc(OCCC(=O)N2CCCCC2)cc1` here?
**A.** The Potency was inconclusive: 20.6 µM [activator, partial curve].

**Q.** Which Potency does the source give for `CCOc1ccc(C(C)=O)cc1COC(=O)c1ccccc1C(=O)N(C)Cc1ccccc1` here?
**A.** Its Potency is inconclusive: 18.3 µM [inhibitor, single point].

**Q.** For `O=C1c2ccccc2NC(c2ccc(-c3ccc(Br)cc3)o2)N1O` (stereo unspecified), which Potency is on record?
**A.** The Potency was inconclusive: 29.1 µM [inhibitor, partial curve, poor fit].

**Q.** For `CC(C)[C@H]1CN=C2N(CCNC(=O)CCC3CCCCC3)[C@H](Cc3ccc(O)cc3)CN21`, which Potency is on record?
**A.** Its Potency is inconclusive: 25.9 µM [activator, single point].

**Q.** With `Cc1ccc(C2=NCCn3c2c2ccccc2[n+]3[O-])cc1` as the molecule, how does the Potency read?
**A.** The Potency was “inactive”.

**Q.** With `COC(=O)C1(CCSC)NC(c2ccc(OC)cc2OC)C2C(=O)N(c3cccc(C(C)=O)c3)C(=O)C21` (stereo unspecified) as the molecule, how does the Potency read?
**A.** Its Potency is inconclusive: 35.5 µM [inhibitor, single point].

**Q.** With `Cc1ccc(C)c(Cn2nnc3c(=O)[nH]c(C4CCCN(C(=O)C5CCC5)C4)nc32)c1` (stereo unspecified) as the molecule, how does the Potency read?
**A.** The Potency was inconclusive: 29.1 µM [inhibitor, single point].

**Q.** For `CC(C)(C)OC(=O)N1CCC(NC(=O)c2nc[nH]c2C(=O)NCC(=O)OCc2ccccc2)CC1`, which Potency is on record?
**A.** The Potency was inconclusive: 23.1 µM [inhibitor, partial curve].

**Q.** With `O=C(CSc1nc2ccccc2s1)Nc1ccc2c(c1)oc1ccccc12` as the molecule, how does the Potency read?
**A.** Its Potency is inconclusive: 13 µM [activator, partial curve].

**Q.** For `CC(=O)C(C)Oc1ccc2c3c(c(=O)oc2c1)CCCCC3` (stereo unspecified), which Potency is on record?
**A.** The Potency was inconclusive: 4.11 µM [activator, partial curve].

**Q.** With `O=[N+]([O-])c1ccccc1OCC(O)CN1CCN(CC(O)COc2ccccc2[N+](=O)[O-])CC1` (stereo unspecified) as the molecule, how does the Potency read?
**A.** Its Potency is inconclusive: 29.1 µM [inhibitor, single point].

**Q.** For `CC1CC(=O)NN=C1c1cccs1` (stereo unspecified), which Potency is on record?
**A.** Its Potency is inconclusive: 11.6 µM [activator, partial curve, poor fit].

**Q.** Which Potency does the source give for `CCS(=O)(=O)Nc1cc(-c2nc3cccnc3s2)ccc1C` here?
**A.** Its Potency is inconclusive: 4.61 µM [activator, partial curve].

**Q.** For `CCN(CC)c1cc(C)c2cc(NC(=O)c3ccc(Br)o3)ccc2n1`, which Potency is on record?
**A.** The Potency was inconclusive: 16.4 µM [inhibitor, single point].

**Q.** Which Potency does the source give for `CC(=O)C[C@@H](O)CC(=O)[C@@H]1OC(=O)CCCCCCCc2ccccc21` here?
**A.** Its Potency is inconclusive: 14.6 µM [activator, single point].

**Q.** For `CC1=NOC(=O)/C1=C\c1ccc(-c2cc(Cl)ccc2Cl)o1`, which Potency is on record?
**A.** The Potency was inconclusive: 29.1 µM [inhibitor, single point].

**Q.** For `COc1ccc(-c2csc(N(CCCN(C)C)C(=O)c3ccccc3C)n2)cc1`, which Potency is on record?
**A.** The Potency was inconclusive: 2.31 µM [inhibitor, partial curve, poor fit].

**Q.** For `CC(C)(C)c1ccccc1OCCCCCNCCO`, which Potency is on record?
**A.** Its Potency is “inactive”.

**Q.** Which Potency does the source give for `COC(=O)c1c(NC(=O)CN2CCC3(O)CCCCC3C2c2cc(OC)ccc2OC)sc(C)c1C` (stereo unspecified) here?
**A.** Its Potency is active: 9.2 µM.

**Q.** With `COc1cccc2sc3cc(C#Cc4ccccn4)ccc3c(=O)c12` as the molecule, how does the Potency read?
**A.** Its Potency is inconclusive: 29.1 µM [activator, partial curve, poor fit].

**Q.** Which Potency does the source give for `CCOC(=O)C1CCN(c2nc3ccccc3nc2C(C#N)C(=O)OC(C)COC)CC1` (stereo unspecified) here?
**A.** Its Potency is inconclusive: 20.6 µM [inhibitor, single point].

**Q.** For `COCCN(CCOC)Cc1c(O)ccc2c1O/C(=C\c1ccco1)C2=O`, which Potency is on record?
**A.** The Potency was “inactive”.

**Q.** With `O=C(c1ccc([N+](=O)[O-])o1)N1CCN(c2nc3ccc(F)cc3s2)CC1` as the molecule, how does the Potency read?
**A.** Its Potency is inconclusive: 4.11 µM [inhibitor, partial curve].

**Q.** Which Potency does the source give for `CCOC(=O)c1c(C)nc(-c2ccccc2)nc1NC(C)=O` here?
**A.** The Potency was inconclusive: 29.1 µM [activator, single point].

**Q.** With `Oc1ccc(Br)cc1/C=N/Nc1ccccn1` as the molecule, how does the Potency read?
**A.** The Potency was inconclusive: 25.9 µM [activator, single point].

**Q.** Which Potency does the source give for `CC(C)(C)c1cn(-c2ccc(F)cc2)c(=S)[nH]1` here?
**A.** The Potency was “inactive”.

**Q.** For `O=C(c1cc2ccccc2o1)N1CCCCCC1`, which Potency is on record?
**A.** The Potency was inconclusive: 8.2 µM [activator, partial curve].

**Q.** Which Potency does the source give for `CC(=O)N1c2ccc(Cl)cc2C2C=CCC2C1c1cccc2ccccc12` (stereo unspecified) here?
**A.** The Potency was active: 23.1 µM.

**Q.** Which Potency does the source give for `CCOC(=O)c1[nH]c(C)c(C(=O)Nc2ccc(Cl)cc2)c1C` here?
**A.** Its Potency is inconclusive: 16.4 µM [activator, partial curve, poor fit].

**Q.** Which Potency does the source give for `O=C(C[n+]1ccccc1)N/N=C/c1cc(Br)ccc1F` here?
**A.** Its Potency is inconclusive: 35.5 µM [activator, single point].

**Q.** Which Potency does the source give for `COc1cc2nc(Nc3ccc(F)cc3)nc(N)c2cc1OC` here?
**A.** The Potency was inconclusive: 29.1 µM [inhibitor, single point].

**Q.** With `O=C(CN1C(=O)CCC1=O)c1ccc(-c2ccccc2)cc1` as the molecule, how does the Potency read?
**A.** Its Potency is inconclusive: 18.4 µM [activator, partial curve].

**Q.** For `O=C(N/N=C/c1ccco1)c1cccc(N2CCCC2=O)c1`, which Potency is on record?
**A.** The Potency was inconclusive: 14.6 µM [activator, partial curve].

**Q.** With `C=CCC[C@@H](Cc1ccc(F)cc1)C(=O)O[C@H](CNC(=O)[C@H](CC=C)CC(=O)N(CCO)Cc1ccccc1)c1ccccc1` as the molecule, how does the Potency read?
**A.** The Potency was active: 20.6 µM.

**Q.** For `COC(=O)c1ccc(CSc2nc3ccccc3c(=O)n2-c2cccc(OC)c2)o1`, which Potency is on record?
**A.** Its Potency is inconclusive: 29.1 µM [inhibitor, single point].

**Q.** With `C[C@H](NS(=O)(=O)c1ccccc1)C(=O)N1CCN(C(c2ccccc2)c2ccccc2)CC1` as the molecule, how does the Potency read?
**A.** The Potency was active: 25.9 µM.

**Q.** For `c1ccc(Nc2nc(Nc3ccccc3)nc(N3CCNCC3)n2)cc1`, which Potency is on record?
**A.** Its Potency is “inactive”.

**Q.** For `O=C(NCc1ccc2c(c1)OCO2)C1CCCN(S(=O)(=O)c2cccc3cccnc23)C1` (stereo unspecified), which Potency is on record?
**A.** Its Potency is inconclusive: 25.9 µM [inhibitor, partial curve, poor fit].

**Q.** Which Potency does the source give for `O=C(CC1(O)C(=O)Nc2ccccc21)c1ccccc1` (stereo unspecified) here?
**A.** The Potency was “inactive”.

**Q.** With `O=C(Nc1ccc(Cl)cc1)c1csc(Cc2ccccc2)n1` as the molecule, how does the Potency read?
**A.** Its Potency is inconclusive: 23.1 µM [activator, single point].

**Q.** Which Potency does the source give for `Cc1cc(C)c(NC(=O)c2ccccc2CCc2ccccc2)c(C)c1` here?
**A.** Its Potency is “inactive”.

**Q.** For `COc1cc(OC)cc(-c2sc3ccc(OC)cc3c2-c2ccc(O)cc2)c1`, which Potency is on record?
**A.** The Potency was inconclusive: 18.3 µM [inhibitor, single point].

**Q.** For `O=C(COc1ccccc1Br)c1ccc2c(c1)OCO2`, which Potency is on record?
**A.** The Potency was inconclusive: 29.1 µM [activator, single point].

**Q.** With `Nc1c(C(=O)Nc2ccc(F)cc2)sc(=S)n1-c1ccccc1F` as the molecule, how does the Potency read?
**A.** The Potency was inconclusive: 10.3 µM [activator, partial curve].

**Q.** For `COc1ccc(-c2c(C#Cc3ccccc3)c3ccccc3n2C)cc1`, which Potency is on record?
**A.** Its Potency is inconclusive: 14.6 µM [activator, partial curve, poor fit].

**Q.** Which Potency does the source give for `Fc1cc(F)cc(NC(=S)N2CCC(c3ccccc3)C2)c1` (stereo unspecified) here?
**A.** Its Potency is inconclusive: 11.6 µM [activator, partial curve].

**Q.** For `CCNCc1ccc(OCc2ccccc2F)c(OC)c1`, which Potency is on record?
**A.** Its Potency is inconclusive: 11.6 µM [activator, partial curve].

**Q.** Which Potency does the source give for `COc1ccc(-c2ccc(NC(=O)c3ccc(Br)o3)cc2)nn1` here?
**A.** The Potency was inconclusive: 9.2 µM [activator, partial curve, poor fit].

**Q.** Which Potency does the source give for `O=C(NCCCN1CCCC1=O)c1cc2c(s1)CCCCC2` here?
**A.** The Potency was inconclusive: 14.6 µM [activator, partial curve].

**Q.** With `C[C@H](CO)N1C[C@H](C)[C@@H](CN(C)S(=O)(=O)c2ccc(F)cc2)Oc2ccc(NC(=O)Cc3cn(C)c4ccccc34)cc2C1=O` as the molecule, how does the Potency read?
**A.** The Potency was inconclusive: 16.4 µM [inhibitor, single point].

**Q.** With `CCC(=O)c1ccc(OCC(=O)Nc2ccc3c(c2)OCCO3)cc1` as the molecule, how does the Potency read?
**A.** Its Potency is inconclusive: 9.2 µM [activator, partial curve].

**Q.** With `CCCCN1C(C)=CC(=C2C(=O)c3ccccc3C2=O)C=C1C` as the molecule, how does the Potency read?
**A.** The Potency was inconclusive: 0.92 µM [activator, full curve].

**Q.** With `CC1CC(C)CN(C(=O)C2CCN(S(=O)(=O)c3cccc4cccnc34)CC2)C1` (stereo unspecified) as the molecule, how does the Potency read?
**A.** The Potency was “inactive”.

**Q.** With `CCN(CC)S(=O)(=O)c1cccc(-c2nnc(-c3ccc(C)cc3)o2)c1` as the molecule, how does the Potency read?
**A.** The Potency was inconclusive: 11.6 µM [inhibitor, partial curve].
